Results deposited as PubChem BioAssay AID743454 (Peter MacCallum Cancer Centre, 2014)
Shown is a random part of about 18,000 deposited reagents. 450 of all reagents (2.5%) count as active. 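Single biological run; no consistent viability z cut-off exists, so the class columns, not z-scores, define the calls.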 A number with no mark means an inactive call. No sequences are given here.

Screen: 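Genes whose loss kills vorinostat-resistant colon cancer cells under vorinostat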 (primary screen)
Cell system: human HCT116-VR colon cancer cells, selected for vorinostat resistance
Knock-down reagent: siRNA pool against human genes, 40 nM siRNA pool
Timing: vorinostat for 24 h, read-out about 72 h after transfection
Treatment: vorinostat at 2.5 µM final
Measurement: 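Two measures, CellTiter-Fluor viability and luminescent caspase 3/7 activity, each as fold change against same-plate mock wells, mean of duplicates, then screen-wide robust z-score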
Reading the numbers: viability robust z-score: higher = more viable cells than screen typical; caspase robust z-score: higher = more caspase 3/7 activity than screen typical
Hit rule: 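a knock-down is a hit when classed RV1 or RV2 for lowered viability, or CA1 or CA2 for caspase activation; those lethal without drug were dropped; hits were retested singly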

target gene,viability hit class,caspase hit class,viability robust z-score,caspase robust z-score
SLC26A2,no change,no change,0.84,-0.7
NXPH1,no change,no change,0.64,-0.84
GALR2,no change,no change,0.02,0.9
TNRC6B,no change,no change,0.45,0.18
SCGB2A2,no change,no change,0.11,0.66
PLPPR2,no change,no change,-1.58,0.16
ANK2,no change,no change,0.66,-0.87
MINDY2,no change,no change,-0.64,-0.16
GRIPAP1,no change,no change,0.88,-1.15
TRIM75,no change,no change,1.42,0.18
C20orf204,no change,no change,-2.41,2.53
ATXN7L2,no change,no change,0.64,-0.14
KRT73,no change,no change,0.27,-0.61
THOP1,no change,no change,-0.24,-0.05
CHKA,no change,no change,-0.36,0.66
GALNT7,no change,no change,0,1.16
OR10K1,no change,no change,1.29,0.36
FAM194C,no change,no change,0.4,-0.72
CHMP1A,no change,no change,1.06,-0.52
PRMT2,no change,no change,0.64,0.78
PFN3,no change,no change,-0.32,0.67
DOCK9,no change,no change,0.35,-0.6
OR13C4,no change,no change,1,-0.24
STC1,no change,no change,-0.16,-0.08
ZFP37,no change,no change,0.21,0.3
ARFGAP2,no change,no change,1.04,1.6
FOXD3,no change,no change,0.2,1.23
LARGE1,no change,no change,0.44,-0.1
DHH,no change,no change,0.22,2.13
LMNA,no change,no change,-0.58,1.9
HOPX,no change,no change,0.38,1.55
RTN4RL1,no change,no change,-1.99,1.93
TRIM6,no change,no change,-0.99,-1.61
ARK2C,no change,no change,1,-0.54
GRIA3,no change,no change,-0.16,1.56
SUGP2,no change,no change,1.05,0.24
MIER3,no change,no change,-0.14,-0.88
MLIP,no change (active),CA2 (caspase activation),-2.27,6.08
YY2,no change,no change,1.22,-0.52
ATOH1,no change,no change,1.31,-0.51
NSMF,no change,no change,0.18,-0.64
SYMPK,no change,no change,-0.82,1.04
KDM1B,no change,no change,1.02,0.33
ARHGAP19,no change,no change,-1.94,1.63
SUDS3,no change,no change,-0.29,-0.38
MRPS12,no change,no change,-0.75,0.31
FBXW9,no change,no change,0.86,-0.18
MED13,no change,no change,0.23,-0.29
SLC16A11,no change,no change,-0.27,-0.52
SLC25A44,no change,no change,-1.36,-0.71
EXOC1,no change,no change,-0.36,1.79
APBB3,no change,no change,-0.78,0.82
ADAMTS5,no change,no change,1.13,0.04
NSUN5P2,no change,no change,-0.84,0.66
OSR1,no change,no change,1.52,-0.05
PBX2,no change,no change,0.72,0.03
YWHAZ,no change,no change,-1.98,-0.43

Targets above whose target name begins with G or g:
target gene,viability hit class,caspase hit class,viability robust z-score,caspase robust z-score
GALR2,no change,no change,0.02,0.9
GRIPAP1,no change,no change,0.88,-1.15
GALNT7,no change,no change,0,1.16
GRIA3,no change,no change,-0.16,1.56
